Measured values published in publication PMC8376253.
These are yes or no findings as the source states them, for the method shown. For some of these results: In cells and extracts the contact can be indirect. Some binding calls cover weakened binding; strength is not graded here. Tags and fused reporters may be left off the sequences shown.

T1: full-length human Naa15, N-terminally 6xHis-tagged (human) (UniProt Q9BXJ9)
T1 sequence: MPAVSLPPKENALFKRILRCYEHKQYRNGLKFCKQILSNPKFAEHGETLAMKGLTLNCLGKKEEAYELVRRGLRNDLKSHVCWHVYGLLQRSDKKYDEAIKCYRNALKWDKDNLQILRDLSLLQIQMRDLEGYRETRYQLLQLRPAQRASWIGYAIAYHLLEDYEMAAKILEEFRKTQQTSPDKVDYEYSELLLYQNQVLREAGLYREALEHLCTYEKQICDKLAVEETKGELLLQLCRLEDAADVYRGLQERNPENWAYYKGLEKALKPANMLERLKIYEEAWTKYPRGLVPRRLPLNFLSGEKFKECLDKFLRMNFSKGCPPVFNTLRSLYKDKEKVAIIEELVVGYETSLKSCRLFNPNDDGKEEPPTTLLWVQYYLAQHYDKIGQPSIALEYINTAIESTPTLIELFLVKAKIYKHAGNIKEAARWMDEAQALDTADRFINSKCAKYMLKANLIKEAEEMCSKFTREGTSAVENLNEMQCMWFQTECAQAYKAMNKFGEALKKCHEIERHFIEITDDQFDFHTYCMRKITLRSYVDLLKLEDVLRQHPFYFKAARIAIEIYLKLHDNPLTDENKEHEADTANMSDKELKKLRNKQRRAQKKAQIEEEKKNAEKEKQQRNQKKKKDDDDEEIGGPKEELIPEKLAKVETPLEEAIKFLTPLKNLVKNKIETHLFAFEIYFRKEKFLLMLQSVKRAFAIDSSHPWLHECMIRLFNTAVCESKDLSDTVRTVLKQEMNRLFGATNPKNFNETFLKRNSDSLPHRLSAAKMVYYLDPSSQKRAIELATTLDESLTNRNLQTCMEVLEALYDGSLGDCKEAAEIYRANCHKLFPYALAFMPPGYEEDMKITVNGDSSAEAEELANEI

T2: V5-tagged mouse Naa15 (pcDNA3.1/V5-His-mNaa15) (mouse) (UniProt Q80UM3)
T2 sequence: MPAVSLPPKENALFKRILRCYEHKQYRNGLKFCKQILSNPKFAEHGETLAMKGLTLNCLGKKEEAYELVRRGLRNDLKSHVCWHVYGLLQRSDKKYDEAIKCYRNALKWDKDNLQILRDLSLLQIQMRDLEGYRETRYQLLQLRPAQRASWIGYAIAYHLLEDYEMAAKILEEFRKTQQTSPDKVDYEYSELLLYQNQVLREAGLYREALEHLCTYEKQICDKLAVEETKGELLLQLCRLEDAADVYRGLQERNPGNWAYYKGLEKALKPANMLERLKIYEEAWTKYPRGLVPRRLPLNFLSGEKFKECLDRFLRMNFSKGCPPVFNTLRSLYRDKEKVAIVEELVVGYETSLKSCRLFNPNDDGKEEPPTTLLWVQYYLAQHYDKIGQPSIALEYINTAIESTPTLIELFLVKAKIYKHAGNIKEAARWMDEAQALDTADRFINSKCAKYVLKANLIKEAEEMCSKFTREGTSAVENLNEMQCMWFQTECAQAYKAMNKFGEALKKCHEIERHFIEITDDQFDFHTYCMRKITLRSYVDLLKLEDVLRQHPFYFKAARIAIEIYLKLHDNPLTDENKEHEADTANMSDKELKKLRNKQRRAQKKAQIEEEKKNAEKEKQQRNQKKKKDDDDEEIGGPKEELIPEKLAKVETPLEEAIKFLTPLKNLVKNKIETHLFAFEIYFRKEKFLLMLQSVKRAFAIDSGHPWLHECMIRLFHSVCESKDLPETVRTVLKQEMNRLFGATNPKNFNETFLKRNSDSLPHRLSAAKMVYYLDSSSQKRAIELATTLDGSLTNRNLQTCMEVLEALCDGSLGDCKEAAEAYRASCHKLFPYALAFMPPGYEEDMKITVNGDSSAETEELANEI


What was measured:
[1] = molecular target: T1, full-length human Naa15, N-terminally 6xHis-tagged (human); test: SEC; mNaa12 (1-160) and 6xHis-hNaa15 co-expressed in Sf9; complex purified by nickel resin, SP ion exchange and Superdex 200 size exclusion (25 mM HEPES pH 7.0, 200 mM NaCl, 1 mM TCEP, 4°C); fractions on silver-stained SDS-PAGE; both purified
[2] = molecular target: T2, V5-tagged mouse Naa15 (pcDNA3.1/V5-His-mNaa15) (mouse); test: co-IP; HEK293 cells co-transfected with V5-His-mNaa15 and a 3xFLAG-tagged catalytic subunit, lysed after 48 hr in PBS-X; 1 µg anti-V5 antibody, 1 hr at 4°C, protein-A Sepharose; western blot

Binder	binding [1]	binding [2]
3xFLAG-tagged mouse Naa11 (p3xFLAG-CMV10-Naa11) (protein, UniProt Q3UX61 1-218) MNIRNARPDDLMNMQHCNLLCLPENYQMKYYFYHGLSWPQLSYIAEDEDGKIVGYVLAKMEEDPDDVPHGHITSLAVKRSHRRLGLAQKLMDQASRAMIENFGAKYVSLHVRKSNRAALHLYSNTLNFQVSEVEPKYYADGEDAYAMKRDLSQMTDELRRQLVLKKNRYVVLGSEETQGGTLPDAGEACLPKNPTSKDSGSSDSTDVQDSSEDLDSIS	–	binds
3xFLAG-tagged mouse Naa10 isoform 1 (p3xFLAG-CMV10-Naa10^235) (protein, UniProt Q9QY36 1-235) MNIRNARPEDLMNMQHCNLLCLPENYQMKYYFYHGLSWPQLSYIAEDENGKIVGYVLAKMEEDPDDVPHGHITSLAVKRSHRRLGLAQKLMDQASRAMIENFNAKYVSLHVRKSNRAALHLYSNTLNFQISEVEPKYYADGEDAYAMKRDLTQMADELRRHLELKEKGKHMVLAALENKAENKGNVLLSSGEACREEKGLAAEDSGGDSKDLSEVSETTESTDVKDSSEASDSAS	–	binds

Next, values leading:

binding [1]	binding [2]	Binder
binds	–	truncated mouse Naa12 (residues 1-160) (domain or fragment, UniProt Q9CQX6 1-160) MNIRRARPDDLMNMQHCNLLCLPENYQMKYYFYHGLSWPQLSYIAEDEDGKIVGYVLAKMEEDPDDVPHGHITSLAVKRSHRRLGLAQKLMDQASRAMIENFSAKYVSLHVRKSNRAALHLYSNTLNFQVSEVEPKYYADGEDAYAMKRDLSQMADELRR
–	binds	3xFLAG-tagged mouse Naa12 (p3xFLAG-CMV10-Naa12) (protein, UniProt Q9CQX6 1-220) MNIRRARPDDLMNMQHCNLLCLPENYQMKYYFYHGLSWPQLSYIAEDEDGKIVGYVLAKMEEDPDDVPHGHITSLAVKRSHRRLGLAQKLMDQASRAMIENFSAKYVSLHVRKSNRAALHLYSNTLNFQVSEVEPKYYADGEDAYAMKRDLSQMADELRRQLVLKKGRYVVLGSKENQGSTLPGSEEASQQENLAGGDSGSDGKDSTDVQDSLQTLGSAS
